Experimental findings from PMC6299093 are described below.

The exact form of at least one protein or probe is not confirmed. The comparison behind a weaker result is the experiment's own reference, which may not be listed here. At least one verdict was read from the data and is not stated in words by the source.

This data set has as its system BRCA1 + BARD1. Briefly: competition with a labelled probe. The settings on record: 25 mM Tris-HCl pH 7.5, 90 mM KCl, 1 mM EDTA, 1 mM DTT, 0.1 mg/ml BSA, RNaseOUT, 37 C 30 min, 10 nM substrate (competition: 1 nM, 10 + 10 min), 6% native PAGE at 4 C, recombinant protein.

On to “GACGTCATAGACGATTACATTGCTAGGACATGCTGTCTAGAGACTATCGC (double strand) [unlabelled dsDNA competitor]”, for which the binding result (cold dsDNA against 1 nM labelled DNA:RNA, modest preference for hybrid over dsDNA) is “binds more weakly”.

Take “GACGTCATAGACGATTACATTGCTAGGACATGCTGTCTAGAGACTATCGC / GCGAUAGUCUCUAGACAGCAUGUCCUAGCAAUGUAAUCGUCUAUGACGUC [unlabelled DNA:RNA hybrid competitor]”: the binding result (cold hybrid against 1 nM labelled dsDNA, modest preference for hybrid, second strand RNA, DNA:RNA hybrid, letters put together from the description) is recorded as “binds”.
